B1: E3 ubiquitin-protein ligase UHRF1 (protein, UniProt Q96T88 1-793)
chain: MWIQVRTMDGRQTHTVDSLSRLTKVEELRRKIQELFHVEPGLQRLFYRGKQMEDGHTLFDYEVRLNDTIQLLVRQSLVLPHSTKERDSELSDTDSGCCLGQSESDKSSTHGEAAAETDSRPADEDMWDETELGLYKVNEYVDARDTNMGAWFEAQVVRVTRKAPSRDEPCSSTSRPALEEDVIYHVKYDDYPENGVVQMNSRDVRARARTIIKWQDLEVGQVVMLNYNPDNPKERGFWYDAEISRKRETRTARELYANVVLGDDSLNDCRIIFVDEVFKIERPGEGSPMVDNPMRRKSGPSCKHCKDDVNRLCRVCACHLCGGRQDPDKQLMCDECDMAFHIYCLDPPLSSVPSEDEWYCPECRNDASEVVLAGERLRESKKKAKMASATSSSQRDWGKGMACVGRTKECTIVPSNHYGPIPGIPVGTMWRFRVQVSESGVHRPHVAGIHGRSNDGAYSLVLAGGYEDDVDHGNFFTYTGSGGRDLSGNKRTAEQSCDQKLTNTNRALALNCFAPINDQEGAEAKDWRSGKPVRVVRNVKGGKNSKYAPAEGNRYDGIYKVVKYWPEKGKSGFLVWRYLLRRDDDEPGPWTKEGKDRIKKLGLTMQYPEGYLEALANREREKENSKREEEEQQEGGFASPRTGKGKWKRKSAGGGPSRAGSPRRTSKKTKVEPYSLTAQQSSLIREDKSNAKLWNEVLASLKDRPASGSPFQLFLSKVEETFQCICCQELVFRPITTVCQHNVCKDCLDRSFRAQVFSCPACRYDLGRSYAMQVNQPLQTVLNQLFPGYGNGR
B2: Argininosuccinate synthetase (protein, UniProt P00966 1-412)
chain: MSSKGSVVLAYSGGLDTSCILVWLKEQGYDVIAYLANIGQKEDFEEARKKALKLGAKKVFIEDVSREFVEEFIWPAIQSSALYEDRYLLGTSLARPCIARKQVEIAQREGAKYVSHGATGKGNDQVRFELSCYSLAPQIKVIAPWRMPEFYNRFKGRNDLMEYAKQHGIPIPVTPKNPWSMDENLMHISYEAGILENPKNQAPPGLYTKTQDPAKAPNTPDILEIEFKKGVPVKVTNVKDGTTHQTSLELFMYLNEVAGKHGVGRIDIVENRFIGMKSRGIYETPAGTILYHAHLDIEAFTMDREVRKIKQGLGLKFAELVYTGFWHSPECEFVRHCIAKSQERVEGKVQVSVLKGQVYILGRESPLSLYNEELVSMNVQGDYEPTDATGFININSLRLKEYHRLQSKVTAK
B3: EF-hand domain-containing protein D2 (protein, UniProt Q96C19 1-240)
chain: MATDELATKLSRRLQMEGEGGGETPEQPGLNGAAAAAAGAPDEAAEALGSADCELSAKLLRRADLNQGIGEPQSPSRRVFNPYTEFKEFSRKQIKDMEKMFKQYDAGRDGFIDLMELKLMMEKLGAPQTHLGLKNMIKEVDEDFDSKLSFREFLLIFRKAAAGELQEDSGLCVLARLSEIDVSSEGVKGAKSFFEAKVQAINVSSRFEEEIKAEQEERKKQAEEMKQRKAAFKELQSTFK

Protein sequences, listed by entry. Tags and fused reporters are not part of them. Residues count along the entry.
UniProt P03950, residues 25-147: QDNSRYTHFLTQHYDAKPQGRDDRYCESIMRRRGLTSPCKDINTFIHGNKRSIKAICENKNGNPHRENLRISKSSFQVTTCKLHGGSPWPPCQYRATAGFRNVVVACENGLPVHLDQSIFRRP
UniProt Q92466: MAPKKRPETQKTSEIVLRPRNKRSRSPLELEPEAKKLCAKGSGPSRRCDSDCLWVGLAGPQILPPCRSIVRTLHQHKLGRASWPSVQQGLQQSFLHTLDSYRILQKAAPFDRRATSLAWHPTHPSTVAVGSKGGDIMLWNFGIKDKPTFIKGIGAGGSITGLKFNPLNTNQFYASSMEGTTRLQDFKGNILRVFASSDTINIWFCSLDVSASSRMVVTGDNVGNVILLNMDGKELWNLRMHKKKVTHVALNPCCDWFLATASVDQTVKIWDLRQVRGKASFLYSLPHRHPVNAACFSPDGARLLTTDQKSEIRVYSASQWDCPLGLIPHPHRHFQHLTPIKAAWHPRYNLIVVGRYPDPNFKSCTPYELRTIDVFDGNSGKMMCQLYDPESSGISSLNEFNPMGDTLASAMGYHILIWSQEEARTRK
UniProt Q96AE4: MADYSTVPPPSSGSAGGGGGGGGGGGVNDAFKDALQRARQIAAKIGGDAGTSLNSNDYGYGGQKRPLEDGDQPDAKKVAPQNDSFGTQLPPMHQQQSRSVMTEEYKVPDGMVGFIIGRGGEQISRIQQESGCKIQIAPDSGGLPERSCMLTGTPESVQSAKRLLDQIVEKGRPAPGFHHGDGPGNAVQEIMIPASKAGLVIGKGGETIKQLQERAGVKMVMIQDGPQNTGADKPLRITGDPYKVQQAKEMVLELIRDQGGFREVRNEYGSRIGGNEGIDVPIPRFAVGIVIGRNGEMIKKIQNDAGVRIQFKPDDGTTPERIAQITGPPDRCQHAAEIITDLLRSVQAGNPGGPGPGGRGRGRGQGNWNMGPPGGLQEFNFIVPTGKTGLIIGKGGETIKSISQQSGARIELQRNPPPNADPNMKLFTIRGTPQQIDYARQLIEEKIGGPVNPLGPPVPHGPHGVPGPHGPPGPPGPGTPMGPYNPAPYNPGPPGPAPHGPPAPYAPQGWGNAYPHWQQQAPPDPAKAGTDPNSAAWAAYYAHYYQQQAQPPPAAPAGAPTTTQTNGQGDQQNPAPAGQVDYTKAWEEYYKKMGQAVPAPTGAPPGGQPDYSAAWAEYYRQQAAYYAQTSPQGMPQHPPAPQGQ
UniProt P38646, residues 47-679: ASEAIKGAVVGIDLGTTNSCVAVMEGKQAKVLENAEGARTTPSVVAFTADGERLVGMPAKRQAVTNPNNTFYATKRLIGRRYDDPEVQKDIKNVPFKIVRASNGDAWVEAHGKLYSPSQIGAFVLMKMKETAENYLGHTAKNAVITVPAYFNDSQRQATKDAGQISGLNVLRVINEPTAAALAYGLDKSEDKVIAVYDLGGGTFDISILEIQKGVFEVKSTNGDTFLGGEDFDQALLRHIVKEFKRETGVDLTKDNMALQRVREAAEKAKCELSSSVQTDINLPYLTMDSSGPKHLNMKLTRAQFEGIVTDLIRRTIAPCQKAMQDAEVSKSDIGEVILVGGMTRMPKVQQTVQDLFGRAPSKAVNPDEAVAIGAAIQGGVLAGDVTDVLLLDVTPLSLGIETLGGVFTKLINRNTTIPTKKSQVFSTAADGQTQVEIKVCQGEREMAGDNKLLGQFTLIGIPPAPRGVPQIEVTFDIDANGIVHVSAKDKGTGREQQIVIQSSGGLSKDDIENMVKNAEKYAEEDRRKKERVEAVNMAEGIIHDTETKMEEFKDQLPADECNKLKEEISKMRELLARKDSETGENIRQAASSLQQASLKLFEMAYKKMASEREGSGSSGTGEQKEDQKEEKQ
UniProt O43707: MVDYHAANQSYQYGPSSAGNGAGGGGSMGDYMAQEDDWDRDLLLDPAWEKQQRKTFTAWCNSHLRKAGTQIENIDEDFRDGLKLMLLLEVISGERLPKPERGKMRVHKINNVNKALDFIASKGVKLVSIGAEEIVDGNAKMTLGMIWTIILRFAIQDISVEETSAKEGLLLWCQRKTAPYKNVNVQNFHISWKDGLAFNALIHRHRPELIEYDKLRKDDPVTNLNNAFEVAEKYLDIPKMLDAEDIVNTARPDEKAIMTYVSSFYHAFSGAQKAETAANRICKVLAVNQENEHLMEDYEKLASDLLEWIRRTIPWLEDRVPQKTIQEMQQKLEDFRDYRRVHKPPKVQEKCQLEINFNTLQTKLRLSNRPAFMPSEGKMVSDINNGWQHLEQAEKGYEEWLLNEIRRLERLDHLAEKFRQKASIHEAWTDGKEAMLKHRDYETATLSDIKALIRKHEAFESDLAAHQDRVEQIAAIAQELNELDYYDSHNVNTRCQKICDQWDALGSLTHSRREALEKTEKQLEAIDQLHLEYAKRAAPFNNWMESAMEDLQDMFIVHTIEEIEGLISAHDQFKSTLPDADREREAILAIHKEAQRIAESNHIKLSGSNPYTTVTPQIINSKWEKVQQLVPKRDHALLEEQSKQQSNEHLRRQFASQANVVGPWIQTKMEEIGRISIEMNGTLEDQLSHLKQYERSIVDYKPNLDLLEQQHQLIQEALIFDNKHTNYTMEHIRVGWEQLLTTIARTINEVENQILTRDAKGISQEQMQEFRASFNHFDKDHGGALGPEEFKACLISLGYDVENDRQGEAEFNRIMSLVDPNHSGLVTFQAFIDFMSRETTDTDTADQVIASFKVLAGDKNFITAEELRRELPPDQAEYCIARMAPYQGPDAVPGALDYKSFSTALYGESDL
UniProt P35579: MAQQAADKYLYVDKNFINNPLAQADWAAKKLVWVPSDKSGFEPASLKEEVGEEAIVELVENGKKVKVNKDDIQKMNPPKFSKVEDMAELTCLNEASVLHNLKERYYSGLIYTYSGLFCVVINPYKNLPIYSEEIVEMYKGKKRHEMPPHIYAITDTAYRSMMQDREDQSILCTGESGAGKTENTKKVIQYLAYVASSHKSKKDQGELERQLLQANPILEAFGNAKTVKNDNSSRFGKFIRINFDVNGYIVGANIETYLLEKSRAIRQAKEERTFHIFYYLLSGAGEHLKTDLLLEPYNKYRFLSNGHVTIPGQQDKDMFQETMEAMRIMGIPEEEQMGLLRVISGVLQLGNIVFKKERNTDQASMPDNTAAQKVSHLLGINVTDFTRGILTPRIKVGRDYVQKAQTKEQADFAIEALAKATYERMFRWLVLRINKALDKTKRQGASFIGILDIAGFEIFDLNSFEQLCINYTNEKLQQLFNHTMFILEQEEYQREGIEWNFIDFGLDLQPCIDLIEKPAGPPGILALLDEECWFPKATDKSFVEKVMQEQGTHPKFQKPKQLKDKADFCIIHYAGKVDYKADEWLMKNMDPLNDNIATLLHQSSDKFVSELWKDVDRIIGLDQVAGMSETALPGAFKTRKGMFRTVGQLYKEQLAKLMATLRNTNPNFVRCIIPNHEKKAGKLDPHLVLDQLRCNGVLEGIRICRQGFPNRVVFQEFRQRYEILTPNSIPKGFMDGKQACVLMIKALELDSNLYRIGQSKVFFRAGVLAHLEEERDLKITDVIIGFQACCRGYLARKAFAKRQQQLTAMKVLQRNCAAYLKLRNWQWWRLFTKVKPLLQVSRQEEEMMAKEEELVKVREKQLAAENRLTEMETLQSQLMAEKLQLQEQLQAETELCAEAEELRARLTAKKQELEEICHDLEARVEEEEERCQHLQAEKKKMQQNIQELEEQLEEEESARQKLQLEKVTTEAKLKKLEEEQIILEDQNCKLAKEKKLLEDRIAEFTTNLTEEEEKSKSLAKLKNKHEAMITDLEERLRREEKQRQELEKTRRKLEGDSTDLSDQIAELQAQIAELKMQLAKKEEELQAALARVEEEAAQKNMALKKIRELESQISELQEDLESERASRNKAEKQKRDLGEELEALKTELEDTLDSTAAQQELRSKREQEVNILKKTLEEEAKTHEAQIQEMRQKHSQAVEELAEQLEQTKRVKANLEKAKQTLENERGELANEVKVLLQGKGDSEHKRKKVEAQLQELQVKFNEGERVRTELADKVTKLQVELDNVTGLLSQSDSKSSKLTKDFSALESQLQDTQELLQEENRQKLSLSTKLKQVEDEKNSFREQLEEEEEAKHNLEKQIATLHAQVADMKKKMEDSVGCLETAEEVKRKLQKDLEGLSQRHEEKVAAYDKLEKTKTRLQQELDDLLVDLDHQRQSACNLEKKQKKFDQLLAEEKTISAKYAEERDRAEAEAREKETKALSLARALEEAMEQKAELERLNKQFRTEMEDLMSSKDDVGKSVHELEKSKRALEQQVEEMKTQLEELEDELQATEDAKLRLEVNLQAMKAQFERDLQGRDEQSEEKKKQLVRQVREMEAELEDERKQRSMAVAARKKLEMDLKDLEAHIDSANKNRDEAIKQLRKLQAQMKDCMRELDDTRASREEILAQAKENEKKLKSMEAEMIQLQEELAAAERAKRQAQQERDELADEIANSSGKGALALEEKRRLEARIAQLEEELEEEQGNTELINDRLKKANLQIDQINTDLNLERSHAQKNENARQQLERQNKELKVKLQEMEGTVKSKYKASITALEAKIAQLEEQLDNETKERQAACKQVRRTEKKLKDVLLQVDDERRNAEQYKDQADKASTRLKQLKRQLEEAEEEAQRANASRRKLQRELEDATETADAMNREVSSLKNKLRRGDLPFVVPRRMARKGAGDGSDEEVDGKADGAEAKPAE
UniProt P67809: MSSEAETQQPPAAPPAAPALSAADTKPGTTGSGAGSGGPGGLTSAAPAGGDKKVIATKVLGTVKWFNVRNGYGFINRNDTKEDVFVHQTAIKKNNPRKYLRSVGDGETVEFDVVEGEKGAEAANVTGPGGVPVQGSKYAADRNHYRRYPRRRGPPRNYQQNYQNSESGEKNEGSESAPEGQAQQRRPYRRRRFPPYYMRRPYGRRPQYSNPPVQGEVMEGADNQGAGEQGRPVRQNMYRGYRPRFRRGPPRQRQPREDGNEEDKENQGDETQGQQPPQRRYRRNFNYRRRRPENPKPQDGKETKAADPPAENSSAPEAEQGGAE

Results are given in words; binding and its absence hold for the method and conditions named. Binding seen in cells or lysates may run through a third protein. A yes stands for co-enrichment or nearness to the bait. Other partners may have been found.

For this test, the target named is Angiogenin (human (endogenous in HeLa)) (UniProt P03950). Put plainly: affinity purification with mass spectrometry; HeLa cells with or without 500 ng/mL exogenous ANG for 24 h, lysed in RIPA buffer; goat anti-ANG antibody at 4°C overnight, protein G agarose; SDS-PAGE, silver stain; bands enhanced in the ANG-treated sample cut out, trypsin digestion, Q-TOF MS.
Take “DNA damage-binding protein 2 (from UniProt Q92466 1-427)”: the binding entry is “binds”.
Consider “Far upstream element-binding protein 1 (from UniProt Q96AE4 1-644)”, for which the binding entry is given as “binds”.
For the molecule “Ras GTPase-activating-like protein IQGAP1 (from UniProt P46940 1-1657)”, the binding result is reported as “binds”.
As for “Heat shock 70 kDa protein 9 (from UniProt P38646 47-679)”, the binding result is given as “binds”.
For “Alpha-actinin-4 (from UniProt O43707 1-911)” the value was “binds”; for Myosin-9 (from UniProt P35579 1-1960), “binds”; for “Y-box-binding protein 1 (from UniProt P67809 1-324)”, “binds”.
For B1 the value was “binds”.
As to B2, the binding entry was “binds”.
In the case of B3 it was “binds”.

Values taken from article PMC3237552.
